The source of these data is PMC11456535, “Receptor activity-modifying protein modulation of parathyroid hormone-1 receptor function and signaling” (Frontiers in Pharmacology, 2024).

By UniProt entry, the sequences of proteins in these tests, tags left out. Residues count along the entry.
UniProt Q03431, residues 27-593: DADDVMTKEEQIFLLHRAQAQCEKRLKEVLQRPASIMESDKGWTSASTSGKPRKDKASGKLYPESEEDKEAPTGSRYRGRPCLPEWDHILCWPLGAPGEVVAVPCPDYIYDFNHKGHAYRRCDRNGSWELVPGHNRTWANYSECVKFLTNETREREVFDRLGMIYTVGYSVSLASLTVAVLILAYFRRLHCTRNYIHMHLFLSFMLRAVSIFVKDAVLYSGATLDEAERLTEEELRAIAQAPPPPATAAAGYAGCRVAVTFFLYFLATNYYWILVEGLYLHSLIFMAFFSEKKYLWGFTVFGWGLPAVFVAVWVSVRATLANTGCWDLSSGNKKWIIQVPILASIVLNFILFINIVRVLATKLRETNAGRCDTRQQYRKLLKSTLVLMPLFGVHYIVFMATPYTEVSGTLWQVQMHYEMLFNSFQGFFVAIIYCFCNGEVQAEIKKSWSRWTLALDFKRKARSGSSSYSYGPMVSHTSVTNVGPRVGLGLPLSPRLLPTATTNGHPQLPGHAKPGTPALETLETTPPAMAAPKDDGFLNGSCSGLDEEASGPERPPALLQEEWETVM
UniProt P32121: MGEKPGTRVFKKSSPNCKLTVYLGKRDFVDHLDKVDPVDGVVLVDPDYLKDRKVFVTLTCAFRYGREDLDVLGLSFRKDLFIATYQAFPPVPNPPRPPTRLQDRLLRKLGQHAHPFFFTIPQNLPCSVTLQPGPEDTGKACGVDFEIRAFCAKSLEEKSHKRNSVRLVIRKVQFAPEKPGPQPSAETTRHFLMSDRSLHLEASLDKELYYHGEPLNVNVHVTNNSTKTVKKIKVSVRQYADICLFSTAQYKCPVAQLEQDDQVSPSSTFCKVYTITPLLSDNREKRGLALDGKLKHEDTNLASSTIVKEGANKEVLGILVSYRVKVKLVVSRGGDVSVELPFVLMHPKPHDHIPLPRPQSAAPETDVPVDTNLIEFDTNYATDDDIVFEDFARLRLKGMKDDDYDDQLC
UniProt O60894, residues 27-148: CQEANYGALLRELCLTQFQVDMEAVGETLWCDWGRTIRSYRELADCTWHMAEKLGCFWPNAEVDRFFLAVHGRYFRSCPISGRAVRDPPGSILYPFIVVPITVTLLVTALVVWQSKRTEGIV

Experiment [1] concerns the target PTH1R of the PathHunter CHO-K1 PTH1R β-arrestin cell line (UniProt Q03431). The experiment can be described thus: split reporter; PathHunter Detection Kit, CHO-K1 PTH1R β-arrestin cells (mock or stably expressing RAMP2), peptide agonists 90 min at RT, chemiluminescence.
Experiment [2] shares this target. The experiment can be described thus: condition: only in cells stably co-expressing RAMP3; split reporter; PathHunter Detection Kit, CHO-K1 PTH1R β-arrestin cells stably expressing RAMP3, peptide agonists 90 min at RT, chemiluminescence.
Experiment [3] addresses parathyroid hormone 1 receptor, C-tagged Citrine PTH1R (human) (UniProt Q03431). As to the kind of experiment: FRET or BRET; sensitized-emission FRET imaging at the cell surface (50-pixel membrane ROIs) of fixed COS-7 cells co-transfected with C-tagged Citrine PTH1R (acceptor) and C-tagged Cerulean RAMP (donor); NFRET as % of a Cerulean-Citrine fusion; FRET-based stoichiometric analysis (Hoppe et al., 2002).

Results are given in words; binding and its absence hold for the method and conditions named. In cells and extracts the contact can be indirect. Some binding calls cover weakened binding; strength is not graded here.

On to “β-arrestin (β-arrestin-2 isoform) of the PathHunter CHO-K1 PTH1R β-arrestin cell line (from UniProt P32121 1-409)”, for which the values for the binding entry in experiment [1] and in experiment [2] were “binds” and “no binding”, respectively.
Consider “receptor activity-modifying protein 1, C-tagged Cerulean RAMP1 (from UniProt O60894 27-148)”, for which, in experiment [3], the binding entry is “no binding”.
